Values quoted from earlier work as cited in patent US8388966B2, “Combination treatment of pancreatic cancer” (Cancer Advances, Inc., priority 2001, dated 2013).
At least one compound was matched to its structure with a doubt left.

How the values were obtained:
[1] = tested on: human pancreatic cell lines; settings: four human pancreatic cell lines; cited from earlier work
[2] = tested on: colorectal tumor cells; settings: cells from cancer subjects at surgical resection; cited from earlier work
[3] = tested on: gastric tumor cells; settings: cells from cancer subjects at surgical resection; cited from earlier work
[4] = tested on: human Panc-1 cells; settings: mice inoculated with human Panc-1 cells; cited from earlier work

Row | Compound | increase in proliferation relative to untreated controls [1] | colorectal tumors whose cells had enhanced proliferation in response to G17 gastrin [2] [%] | gastric tumors whose cells had enhanced proliferation in response to G17 gastrin [3] [%] | tumor volume greater than untreated control tumors [4] [%]
1 | CSCC[C@@H](NC(=O)[C@@H](Cc1c[nH]c2ccccc12)NC(=O)CNC(=O)[C@@H](Cc1ccc(O)cc1)NC(=O)[C@@H](C)NC(=O)[C@@H](CCC(=O)O)NC(=O)[C@@H](CCC(=O)O)NC(=O)[C@@H](CCC(=O)O)NC(=O)[C@H](CCC(=O)O)NC(=O)[C@H](CCC(=O)O)NC(=O)[C@H](CC(C)C)NC(=O)[C@H](Cc1c[nH]c2ccccc12)NC(=O)[C@@H]1CCCN1C(=O)CNC(=O)[C@@H](N)CCC(=O)O)C(=O)N[C@H](CC(=O)O)C(=O)N[C@H](Cc1ccccc1)C(N)=O [G17 gastrin] | 40-68% | 55 | 69 | –
2 | CSCC[C@H](NC(=O)[C@H](Cc1c[nH]c2ccccc12)NC(=O)CCNC(=O)OC(C)(C)C)C(=O)N[C@@H](CC(=O)O)C(=O)N[C@@H](Cc1ccccc1)C(N)=O [pentagastrin] | – | – | – | 127
